# PubChem BioAssay AID1259308 – NCATS, 2017
# Assay: 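Knock-downs that increase output of a recombinant reporter protein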 (primary screen)
# System: human HEK293 embryonic kidney cells stably expressing firefly luciferase (HEK-CMV-Luc2-Hygro)
# Knock-down reagent: single siRNA against human genes, 0.8 pmol siRNA per well
# Duration: 72 h
# Measurement: 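Reporter luminescence and viable-cell signal on separate replicate plates, given as percent of non-targeting control and median/MAD z-scores, plus per-cell luciferase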
# Scale: total luciferase, z-score and total luciferase, % of control: higher = more reporter protein produced; luciferase per cell, z-score: higher = more reporter output per viable cell; viable cells, % of control: higher = more viable cells
# Active means: 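An siRNA counts as active if its total luciferase robust z-score exceeds 3; genes with two or more such siRNAs out of three were retested with fresh siRNAs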
# Meaning of the calls: active = raised luciferase; inactive = no rise
# Here is a random part of about 59,000 deposited reagents. About 1,510 of them (2.6%) count as active. 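Calls use total luciferase alone and ignore viability, so some active siRNAs may act by altering cell number.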
Target gene,PubChem SID,"total luciferase, z-score","total luciferase, % of control","luciferase per cell, z-score","viable cells, % of control",Outcome
BNIP1 (BCL2 interacting protein 1),SID160728536,1.93,120,0.98,104,inactive
BNIP1 (BCL2 interacting protein 1),SID160728547,-0.308,75.8,-1.08,113,inactive
BNIP1 (BCL2 interacting protein 1),SID160731770,1.34,109,0.832,97.5,inactive
COASY (Coenzyme A synthase),SID160761427,-1.27,56.5,-0.597,73.9,inactive
COASY (Coenzyme A synthase),SID160761531,0.444,90.7,-0.239,108,inactive
COASY (Coenzyme A synthase),SID160761639,-1.08,60.3,-1.32,95.5,inactive
NR1H3 (nuclear receptor subfamily 1 group H member 3),SID160724790,-1.02,61.6,-0.982,89.2,inactive
NR1H3 (nuclear receptor subfamily 1 group H member 3),SID160724800,2.46,131,0.991,113,inactive
NR1H3 (nuclear receptor subfamily 1 group H member 3),SID160730400,-0.284,76.2,-0.649,101,inactive
NOC3L (NOC3 like DNA replication regulator),SID160733805,-0.205,77.8,-0.133,90.1,inactive
NOC3L (NOC3 like DNA replication regulator),SID160747643,0.268,87.2,0.351,88.9,inactive
NOC3L (NOC3 like DNA replication regulator),SID160747644,0.212,86.1,0.996,74,inactive
ATG16L2 (autophagy related 16 like 2),SID160753457,2.26,127,0.915,111,inactive
ATG16L2 (autophagy related 16 like 2),SID160753458,0.222,86.3,-0.105,99.1,inactive
ATG16L2 (autophagy related 16 like 2),SID160753459,-0.857,64.8,-0.839,90.4,inactive
USP9X (ubiquitin specific peptidase 9 X-linked),SID160719759,1.76,117,1.21,94.9,inactive
USP9X (ubiquitin specific peptidase 9 X-linked),SID160719760,0.181,85.5,-0.0598,97,inactive
USP9X (ubiquitin specific peptidase 9 X-linked),SID160719761,0.0878,83.6,0.515,81.6,inactive
CDY2A (chromodomain Y-linked 2A),SID160722188,0.683,95.5,0.816,86.1,inactive
CDY2A (chromodomain Y-linked 2A),SID160722189,0.119,84.3,-0.0776,96.1,inactive
CDY2A (chromodomain Y-linked 2A),SID160722190,0.411,90.1,-0.36,111,inactive
NOS3 (nitric oxide synthase 3),SID160778138,2.12,124,1.64,90.1,inactive
NOS3 (nitric oxide synthase 3),SID160778139,0.375,89.4,-0.132,103,inactive
NOS3 (nitric oxide synthase 3),SID160778140,-0.96,62.8,-0.495,79.9,inactive
TMTC1 (transmembrane O-mannosyltransferase targeting cadherins 1),SID160751442,1.31,108,1.57,79.8,inactive
TMTC1 (transmembrane O-mannosyltransferase targeting cadherins 1),SID160751443,-0.757,66.8,-0.16,77.9,inactive
TMTC1 (transmembrane O-mannosyltransferase targeting cadherins 1),SID160751444,-0.273,76.5,0.441,76.1,inactive
POP5 (POP5 ribonuclease P/MRP subunit),SID160740691,-0.179,78.3,0.814,70.6,inactive
POP5 (POP5 ribonuclease P/MRP subunit),SID160740692,0.00139,81.9,0.638,77.4,inactive
POP5 (POP5 ribonuclease P/MRP subunit),SID160740693,0.889,99.6,0.83,89.4,inactive
ZNF808 (zinc finger protein 808),SID160725199,-1.37,54.7,-0.201,64.4,inactive
ZNF808 (zinc finger protein 808),SID160765898,2.04,123,4.04,47.3,inactive
ZNF808 (zinc finger protein 808),SID160765899,-0.733,67.3,-0.416,83.9,inactive
ADAM7 (ADAM metallopeptidase domain 7),SID160720748,0.459,91,-0.229,108,inactive
ADAM7 (ADAM metallopeptidase domain 7),SID160720749,-0.349,75,-0.964,108,inactive
ADAM7 (ADAM metallopeptidase domain 7),SID160732094,1.22,106,0.729,97.8,inactive
"RBSN (rabenosyn, RAB effector)",SID160747523,0.162,85.1,0.0434,94,inactive
"RBSN (rabenosyn, RAB effector)",SID160747524,-0.949,63,-0.722,85.1,inactive
"RBSN (rabenosyn, RAB effector)",SID160747525,-0.531,71.3,0.199,75.6,inactive
TUBD1 (tubulin delta 1),SID160740245,-1.89,44.3,-0.967,63.8,inactive
TUBD1 (tubulin delta 1),SID160740246,0.0681,83.2,-0.0371,93.9,inactive
TUBD1 (tubulin delta 1),SID160740247,0.445,90.7,0.14,97.7,inactive
FUT9 (fucosyltransferase 9),SID160729049,-0.734,67.3,0.686,62.8,inactive
FUT9 (fucosyltransferase 9),SID160729050,1.59,113,0.9,100,inactive
FUT9 (fucosyltransferase 9),SID160729051,0.231,86.5,-0.146,100,inactive
KRT10-AS1 (KRT10 antisense RNA 1),SID160758488,0.887,99.5,0.29,103,inactive
KRT10-AS1 (KRT10 antisense RNA 1),SID160758489,2.19,125,2,82.7,inactive
KRT10-AS1 (KRT10 antisense RNA 1),SID160758490,-0.803,65.9,0.662,61.9,inactive

As entered above:
For “luciferase per cell, z-score”, TUBD1 (tubulin delta 1) [SID160740245] has -0.967
Value of BNIP1 (BCL2 interacting protein 1) [SID160728547] under “total luciferase, % of control”: 75.8
TUBD1 (tubulin delta 1) [SID160740246], total luciferase, % of control → 83.2
CDY2A (chromodomain Y-linked 2A) [SID160722188], viable cells, % of control: 86.1
BNIP1 (BCL2 interacting protein 1) [SID160731770], total luciferase, z-score: 1.34
For “total luciferase, z-score”, COASY (Coenzyme A synthase) [SID160761427] shows -1.27

Further results follow.
Target gene,PubChem SID,"total luciferase, z-score","total luciferase, % of control","luciferase per cell, z-score","viable cells, % of control",Outcome
PLTP (phospholipid transfer protein),SID160714508,-2.21,38,-2.3,77.8,inactive
PLTP (phospholipid transfer protein),SID160714509,0.715,96.1,0.399,96.7,inactive
PLTP (phospholipid transfer protein),SID160714510,-0.202,77.9,-0.257,93.1,inactive
MEN1 (menin 1),SID160777150,-0.411,73.7,-0.385,91.2,inactive
MEN1 (menin 1),SID160777151,-0.125,79.4,0.427,79.3,inactive
MEN1 (menin 1),SID160777152,2.07,123,1.75,86.7,inactive
ZC3HAV1L (ZC3HAV1 like),SID160754177,-0.106,79.8,-0.201,94,inactive
ZC3HAV1L (ZC3HAV1 like),SID160754178,0.156,85,0.526,82.7,inactive
ZC3HAV1L (ZC3HAV1 like),SID160754179,-0.635,69.3,-0.577,90.1,inactive
PCDHB14 (protocadherin beta 14),SID160731545,-1.33,55.5,-1.34,88.2,inactive
PCDHB14 (protocadherin beta 14),SID160744810,-0.166,78.6,1.23,63.6,inactive
PCDHB14 (protocadherin beta 14),SID160744811,-0.231,77.3,-0.659,103,inactive
LY6G5B (lymphocyte antigen 6 family member G5B),SID160746852,-1.09,60.3,0.701,56,inactive
LY6G5B (lymphocyte antigen 6 family member G5B),SID160746853,-0.29,76.1,-0.462,96.1,inactive
LY6G5B (lymphocyte antigen 6 family member G5B),SID160746854,-1.35,55.1,-1.07,81.6,inactive
SGK2 (serum/glucocorticoid regulated kinase 2),SID160725513,-1.9,44,-0.171,51.5,inactive
SGK2 (serum/glucocorticoid regulated kinase 2),SID160725520,0.962,101,0.549,97.7,inactive
SGK2 (serum/glucocorticoid regulated kinase 2),SID160725527,0.732,96.5,0.119,104,inactive
KCTD4 (potassium channel tetramerization domain containing 4),SID160765547,0.515,92.1,1.15,76.1,inactive
KCTD4 (potassium channel tetramerization domain containing 4),SID160765548,-0.535,71.2,-0.931,102,inactive
KCTD4 (potassium channel tetramerization domain containing 4),SID160765549,-0.401,73.9,-0.253,88.3,inactive
DDI1 (DDI proteasomal shuttling factor 1),SID160767595,1.46,111,1.25,89.3,inactive
DDI1 (DDI proteasomal shuttling factor 1),SID160767596,2.14,124,1.02,106,inactive
DDI1 (DDI proteasomal shuttling factor 1),SID160767597,0.976,101,0.367,103,inactive
KCNG1,SID160723889,0.567,93.2,1.32,73.5,inactive
KCNG1,SID160776157,-0.495,72,-0.231,85.5,inactive
KCNG1,SID160776158,0.442,90.7,0.727,83.7,inactive
